Taken from: PubChem BioAssay AID1259266 (Sanger Institute, 2017)

- Assay: 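Essential genes and drug synergy among kinases and colorectal-mutated genes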 (primary screen)
- Cell system: LS123 human colorectal cancer cells
- Knock-down reagent: siRNA pool against human genes
- Challenge: anchor drugs BYL719 (1 µM), cetuximab (5 µg/ml) or trametinib (10 nM), each chosen to barely slow growth alone; DMSO vehicle as the drug-free arm
- Detection: 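Replicate-averaged viability scaled to non-targeting pools, robust z-score for siRNA alone, and a synergy score per anchor drug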
- Scale: robust z-score, knock-down alone: higher = more cells surviving after knock-down; viability, knock-down alone: higher = more viable cells; synergy score with trametinib and synergy score with BYL719 and synergy score with cetuximab: higher = stronger synthetic lethality with drug
- Hit rule: 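a knock-down counts as essential if its z-score without drug is under -3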
- Calls: active = essential (knock-down alone cuts viability); inactive = no change
The deposit covers 794 reagents; below is a random part of them. Over the whole deposit, 16 (2%) got an active call. 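Calls reflect knock-down alone, not drug synergy; viability seems capped at 1 and z-scores at 0.585.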 Entries without a mark were called inactive. Not given: the amount of reagent, the time to read-out.

| target gene | robust z-score, knock-down alone | viability, knock-down alone (fraction of control) | synergy score with trametinib | synergy score with BYL719 | synergy score with cetuximab |
| --- | --- | --- | --- | --- | --- |
| SGK2 | 0.585 | 1 | -0.0714 | -0.102 | -0.0122 |
| PRKCA | 0.282 | 0.982 | 0.00851 | -0.0023 | 0.0575 |
| LIMK1 | 0.0093 | 0.966 | -0.124 | -0.0828 | -0.046 |
| SRPK1 | 0.585 | 1 | -0.0125 | -0.159 | -0.0122 |
| CAMK2G | 0.231 | 0.979 | -0.0857 | -0.072 | 0.074 |
| UCK1 | 0.268 | 0.981 | -0.0397 | -0.0933 | -0.00656 |
| MAPK12 | 0.585 | 1 | -0.155 | -0.159 | -0.0122 |
| NUAK2 | -1.34 | 0.886 | 0.0264 | -0.0125 | -0.00757 |
| CDK15 | 0.551 | 0.998 | -0.0903 | -0.0244 | 0.0198 |
| GTF2H1 | -1.1 | 0.9 | 0.0182 | -0.0245 | 0.0419 |
| PRKG1 | 0.585 | 1 | -0.14 | -0.155 | -0.0122 |
| TP53RK | -0.612 | 0.929 | -0.0782 | -0.196 | -0.0623 |
| CSNK1G2 | 0.117 | 0.972 | -0.14 | -0.183 | -0.0397 |
| THNSL1 | 0.585 | 1 | -0.169 | -0.159 | -0.0122 |
| RIPK4 | 0.585 | 1 | 0.0266 | -0.148 | 0.034 |
| PRKACB | 0.585 | 1 | -0.0586 | -0.0635 | 0.0343 |
| CDK4 | -0.977 | 0.907 | -0.0787 | -0.104 | 0.011 |
| CSK | 0.585 | 1 | -0.131 | -0.033 | -0.0122 |
| SIK1 | 0.444 | 0.992 | 0.0254 | 0.0287 | -0.0205 |
| TRPM6 | 0.585 | 1 | -0.186 | -0.156 | -0.0122 |
| MKNK2 | -0.335 | 0.945 | -0.145 | -0.0518 | -0.0662 |
| EEF2K | 0.0699 | 0.969 | 0.00703 | 0.0369 | 0.211 |
| RIOK2 | -0.265 | 0.95 | -0.145 | -0.0399 | -0.0489 |
| SRC | 0.585 | 1 | -0.00945 | 0.0202 | -0.0122 |
| IGF1R | 0.585 | 1 | -0.164 | -0.00513 | -0.0122 |
| DGKB | -2.09 | 0.841 | -0.124 | 0.000706 | -0.0054 |
| IKBKE | 0.585 | 1 | -0.122 | -0.159 | -0.0122 |
| CKS2 | 0.585 | 1 | -0.104 | -0.118 | -0.0122 |
| MAPK6 | 0.585 | 1 | -0.0717 | -0.0291 | 0.0598 |
| PKMYT1 | 0.585 | 1 | -0.0324 | -0.128 | -0.0122 |
| CDKL3 | 0.585 | 1 | -0.186 | -0.159 | -0.0122 |
| RFK | 0.585 | 1 | -0.178 | -0.139 | -0.0122 |
| MAP3K9 | -5.79 (active) | 0.621 | 0.0403 | 0.0523 | 0.0942 |
| CRKL | 0.585 | 1 | -0.135 | -0.159 | -0.0122 |
| MAP4K3 | -1.39 | 0.883 | -0.0211 | -0.125 | -0.0911 |
| ASPM | 0.585 | 1 | -0.0834 | -0.104 | -0.0122 |
| MAPKAPK2 | 0.585 | 1 | -0.186 | -0.0801 | -0.0122 |
| COASY | -2 | 0.847 | -0.034 | 0.0458 | 0.0415 |
| ERBB2 | 0.585 | 1 | -0.165 | -0.0774 | -0.0122 |
| CSNK1G3 | 0.585 | 1 | -0.119 | -0.144 | -0.0122 |
| STK10 | 0.294 | 0.983 | -0.0758 | -0.0904 | -0.0293 |
| EPHA1 | 0.585 | 1 | -0.127 | -0.144 | -0.0122 |
| POLR2B | -3.28 (active) | 0.77 | -0.0561 | -0.128 | 0.000222 |
| RPS6KC1 | 0.585 | 1 | -0.102 | -0.159 | -0.0122 |
| EPHB4 | 0.585 | 1 | -0.098 | -0.0193 | 0.0574 |
| PHKG2 | 0.585 | 1 | -0.0253 | -0.159 | -0.00532 |
| MYO3A | 0.585 | 1 | -0.0355 | -0.157 | -0.0122 |
| BRAF | -0.27 | 0.949 | 0.125 | -0.0486 | 0.0368 |
| KSR2 | 0.14 | 0.974 | -0.111 | -0.103 | 0.0648 |
| CIT | -0.207 | 0.953 | -0.0699 | -0.00661 | 0.00406 |

Ordered by “robust z-score, knock-down alone” (high to low): 7 of the entries above
| target gene | robust z-score, knock-down alone | viability, knock-down alone (fraction of control) | synergy score with trametinib | synergy score with BYL719 | synergy score with cetuximab |
| --- | --- | --- | --- | --- | --- |
| SGK2 | 0.585 | 1 | -0.0714 | -0.102 | -0.0122 |
| SRPK1 | 0.585 | 1 | -0.0125 | -0.159 | -0.0122 |
| MAPK12 | 0.585 | 1 | -0.155 | -0.159 | -0.0122 |
| PRKCA | 0.282 | 0.982 | 0.00851 | -0.0023 | 0.0575 |
| UCK1 | 0.268 | 0.981 | -0.0397 | -0.0933 | -0.00656 |
| CAMK2G | 0.231 | 0.979 | -0.0857 | -0.072 | 0.074 |
| LIMK1 | 0.0093 | 0.966 | -0.124 | -0.0828 | -0.046 |
